Experimental data from patent US5091367A (Hoechst Aktiengesellschaft, priority 1986, dated 1992).

Assay: general procedure: solution-phase peptide synthesis; DCC/HOBt or DCC/HOObt with N-ethylmorpholine
Conditions: acetate

Which step yield (coupling step) does the source give for “Z-D-Ser(Ac4 -β-D-Glc)-Leu-Arg-Pro-NH-C2 H5 -tosylate” here?
Its step yield is 83%.

For “H-D-Ser(Ac4-β-D-Glc)-Leu-Arg-Pro-NH-C2H5”, which step yield (late stage modification step) is on record?
The step yield was 67%.
